Experimental data as given in paper PMC11905137.
No constants are given. Whether binding was seen depends on the method and setting. Binding seen in cells or lysates may run through a third protein. Some binding calls cover weakened binding; strength is not graded here.

T1: CD81, tetraspanin trans-membrane protein (mouse (endogenous in mouse CD19+ B cells)) (UniProt P35762)
T1 sequence: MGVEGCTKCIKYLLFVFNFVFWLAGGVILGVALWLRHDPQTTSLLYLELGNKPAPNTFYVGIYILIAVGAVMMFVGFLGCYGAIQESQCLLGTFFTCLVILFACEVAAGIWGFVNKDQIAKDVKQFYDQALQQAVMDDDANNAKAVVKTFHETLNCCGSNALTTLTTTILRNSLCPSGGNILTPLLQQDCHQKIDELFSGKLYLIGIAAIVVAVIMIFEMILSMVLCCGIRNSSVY

B1: Epstein-Barr virus induced gene 3 (Ebi3) subunit of IL-35 (protein, UniProt O35228 19-228)
chain: YTETALVALSQPRVQCHASRYPVAVDCSWTPLQAPNSTRSTSFIATYRLGVATQQQSQPCLQRSPQASRCTIPDVHLFSTVPYMLNVTAVHPGGASSSLLAFVAERIIKPDPPEGVRLRTAGQRLQVLWHPPASWPFPDIFSLKYRLRYRRRGASHFRQVGPIEATTFTLRNSKPHAKYCIQVSAQDLTDYGKPSDWSLPGQVESAPHKP
B2: IL-12p35 (p35) subunit of IL-35 (protein, UniProt P43431 23-215)
chain: RVIPVSGPARCLSQSRNLLKTTDDMVKTAREKLKHYSCTAEDIDHEDITRDQTSTLKTCLPLELHKNESCLATRETSSTTRGSCLPPQKTSLMMTLCLGSIYEDLKMYQTEFQAINAALQNHNHQQIILDKGMLVAIDELMQSLNHNGETLRQKPPVGEADPYRVKMKLCILLHAFSTRVVTINRVMGYLSSA

What was measured:
[1] = biological target: T1, CD81, tetraspanin trans-membrane protein (mouse (endogenous in mouse CD19+ B cells)); test: proximity ligation; Duolink PLA on activated B cells (i35-Bregs) fixed and adhered to glass slides; rabbit anti-CD81 + mouse anti-p35 or anti-Ebi3; signal means the two are within <40 nm
[2] = biological target: T1, CD81, tetraspanin trans-membrane protein (mouse (endogenous in mouse CD19+ B cells)); test: co-IP; particulate (100,000 xg) fraction of i35-Breg culture supernatant (i35-exosomes) resuspended in PBS; immunoprecipitation with anti-CD81, Western blot for p35 or Ebi3

Row | Binder | binding [1] | binding [2]
1 | B1 | binds weakly | binds
2 | B2 | binds | binds
